For 26 compounds, TEAD-luciferase reporter activity results are on record in the supplement of paper PMC10735217.

This assay relates to HEK293A TEAD-LUC reporter. Description: TEAD-luciferase reporter activity (YAP activation), robust Z score vs plate; higher = stronger YAP/TEAD activation. The conditions noted are these: 24 h.

Structures are written as SMILES. This is one part of the list. Single values are uncertain here, since repeats match poorly.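 Human kidney-derived cells stably carry a construct in which eight TEAD-binding elements drive luciferase, measured by luminescence in a drug-repurposing library screen. A hit is any compound whose signal exceeds the plate mean by more than five robust Z scores.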

Regarding `CC(C)C[C@H](NC(=O)[C@H](C)NC(=O)[C@H](CC(=O)O)NC(=O)[C@@H](NC(=O)[C@H](C)NC(=O)[C@H](CCC(=O)O)NC(=O)[C@H](CCC(N)=O)NC(=O)[C@H](CCCNC(=N)N)NC(=O)[C@H](CCCNC(=N)N)NC(=O)[C@H](CC(C)C)NC(=O)[C@H](C)NC(=O)[C@H](CCCCN)NC(=O)[C@@H](N)CCCCN)C(C)C)C(=O)O`, the TEAD-luciferase reporter activity (compound concentration: 2 uM) was inactive: 0.358 and the TEAD-luciferase reporter activity (compound concentration: 10 uM) was inactive: 2.74.

Regarding `CCOC=C1NC(=O)c2nccnc2N1`, the TEAD-luciferase reporter activity (compound concentration: 200 nM) was inactive: -0.812, the TEAD-luciferase reporter activity (compound concentration: 2 uM) is inactive: -0.416 and the TEAD-luciferase reporter activity (compound concentration: 10 uM) was inactive: 0.51.

`CO[C@@H]1[C@H](O)[C@@H](CO)O[C@H]1n1cc(C)c(N)nc1=O`: the TEAD-luciferase reporter activity runs as follows: (compound concentration: 200 nM) inactive: -0.411; (compound concentration: 2 uM) inactive: 1.4; (compound concentration: 10 uM) inactive: 2.54.

Take `COCC(=O)NC/C=C/c1ccc2ncnc(Nc3ccc(Oc4ccc(C)nc4)c(C)c3)c2c1`: the TEAD-luciferase reporter activity by setting is: (compound concentration: 200 nM) inactive: -0.545; (compound concentration: 2 uM) inactive: -1.81; (compound concentration: 10 uM) inactive: -0.664.

Regarding `O=c1[nH]c(=O)n(C2CCCO2)cc1F` (stereo not given), the TEAD-luciferase reporter activity runs as follows: (compound concentration: 200 nM) inactive: 0.0444; (compound concentration: 2 uM) inactive: -0.188; (compound concentration: 10 uM) inactive: -0.958.

In the case of `Nc1nc(N)c2c(OCC3CCN(Cc4c(Cl)cccc4Cl)CC3)cccc2n1`, the TEAD-luciferase reporter activity runs as follows: (compound concentration: 200 nM) inactive: -1.06; (compound concentration: 2 uM) inactive: -1.79; (compound concentration: 10 uM) inactive: 0.5.

With `Cc1nc(NS(=O)(=O)c2ccc(N)cc2)nc(C)c1Br`, the TEAD-luciferase reporter activity reads like this: (compound concentration: 200 nM) inactive: -0.777; (compound concentration: 2 uM) inactive: 0.282; (compound concentration: 10 uM) inactive: -1.02.

As for `CC1Cc2ccccc2N1NC(=O)c1ccc(Cl)c(S(N)(=O)=O)c1` (stereo not given), the TEAD-luciferase reporter activity is inactive: -1.03 (compound concentration: 200 nM), inactive: -0.527 (compound concentration: 2 uM) and inactive: -0.172 (compound concentration: 10 uM).

As to `Oc1ccc(C2c3ccc(O)cc3OCC2c2cccc(O)c2)cc1` (stereo not given), the TEAD-luciferase reporter activity runs as follows: (compound concentration: 200 nM) inactive: -1.3; (compound concentration: 2 uM) inactive: 0.976; (compound concentration: 10 uM) inactive: -0.221.

Turning to `COC(=O)Nc1nc2ccc(C(=O)C3CC3)cc2[nH]1` [Ciclobendazole], the TEAD-luciferase reporter activity (compound concentration: 200 nM) was inactive: 1.65, the TEAD-luciferase reporter activity (compound concentration: 2 uM) was inactive: -1.19 and the TEAD-luciferase reporter activity (compound concentration: 10 uM) is inactive: 0.32.

Turning to `CCCNC(C)(C)C(=O)Nc1ccccc1C` [Quatacaine], the TEAD-luciferase reporter activity was inactive: -2.44 (compound concentration: 200 nM) and inactive: -0.26 (compound concentration: 10 uM).

Regarding `C=CCN1CCCC1CNC(=O)c1cc(S(N)(=O)=O)cc(OC)c1OC` (stereo not given), the TEAD-luciferase reporter activity runs as follows: (compound concentration: 200 nM) inactive: -0.144; (compound concentration: 2 uM) inactive: -0.964; (compound concentration: 10 uM) inactive: -1.36.

Turning to `Cc1ccc(CC2SC(=O)NC2=O)cc1` (stereo not given), the TEAD-luciferase reporter activity by setting is: (compound concentration: 200 nM) inactive: -1.1; (compound concentration: 2 uM) inactive: 0.622; (compound concentration: 10 uM) inactive: -0.299.

As to `CCOC(=O)Nc1ccc2c(c1)N(C(=O)CN(C)C)c1ccccc1CC2` [tiracizine], the TEAD-luciferase reporter activity (compound concentration: 200 nM) was inactive: -0.746, the TEAD-luciferase reporter activity (compound concentration: 2 uM) was inactive: -0.278 and the TEAD-luciferase reporter activity (compound concentration: 10 uM) was inactive: 0.702.

Regarding `CC(=O)NC1CCN(c2ccc3ncc(-c4cccc(C(F)(F)F)c4)n3n2)CC1`, the TEAD-luciferase reporter activity by setting is: (compound concentration: 200 nM) inactive: -2.27; (compound concentration: 10 uM) inactive: -0.213.

As for `CC(C)(CO)CCCCCCC(C)(C)CO` [Gemcadiol], the TEAD-luciferase reporter activity runs as follows: (compound concentration: 200 nM) inactive: -0.933; (compound concentration: 2 uM) inactive: -1.34; (compound concentration: 10 uM) inactive: 0.344.

As to `NC(=O)N(O)Cc1cccc(COC(c2cccnc2)c2ccc3ccccc3c2)c1` (stereo not given), the TEAD-luciferase reporter activity (compound concentration: 200 nM) was inactive: -0.0757, the TEAD-luciferase reporter activity (compound concentration: 2 uM) was inactive: -0.713 and the TEAD-luciferase reporter activity (compound concentration: 10 uM) was inactive: 0.613.

Turning to `Cc1ccc2c(Br)cc(Br)c(OC(=O)c3ccc4ccccc4c3)c2n1`, the TEAD-luciferase reporter activity is, setting by setting: (compound concentration: 200 nM) inactive: -0.34; (compound concentration: 2 uM) inactive: 1.73; (compound concentration: 10 uM) inactive: -0.515.

As to `Cc1nccn1Cc1csc2ccc3ccccc3c2c1=O`, the TEAD-luciferase reporter activity (compound concentration: 200 nM) was inactive: -1.54, the TEAD-luciferase reporter activity (compound concentration: 2 uM) was inactive: -1.8 and the TEAD-luciferase reporter activity (compound concentration: 10 uM) was inactive: 2.82.

In the case of `Cc1cn[nH]c1` [fomepizole], the TEAD-luciferase reporter activity reads like this: (compound concentration: 200 nM) inactive: -0.679; (compound concentration: 2 uM) inactive: -0.646; (compound concentration: 10 uM) inactive: 3.75.

As to `C[C@@]12CC(N)[C@@H]1CN(c1nc3c(cc1F)c(=O)c(C(=O)O)cn3C1CC1)C2` (stereo not given in full), the TEAD-luciferase reporter activity by setting is: (compound concentration: 200 nM) inactive: 3.19; (compound concentration: 2 uM) inactive: -0.0986; (compound concentration: 10 uM) inactive: -0.637.

Regarding `C1CCCN(C2C3CC4CC(C3)CC2C4)CC1` (stereo not given) [Hemantane], the TEAD-luciferase reporter activity is, setting by setting: (compound concentration: 200 nM) inactive: -0.883; (compound concentration: 2 uM) inactive: -0.594; (compound concentration: 10 uM) inactive: -0.122.

`CCCC(N)(CCC)CCC`: the TEAD-luciferase reporter activity runs as follows: (compound concentration: 200 nM) inactive: -1.4; (compound concentration: 2 uM) inactive: -1.6; (compound concentration: 10 uM) inactive: 2.24.

On to `COc1ccc(NC2=C(C)C(=O)CC2)cc1OC1CC2CCC1C2` (stereo not given), for which the TEAD-luciferase reporter activity (compound concentration: 200 nM) was inactive: -1.71, the TEAD-luciferase reporter activity (compound concentration: 2 uM) is inactive: -0.256 and the TEAD-luciferase reporter activity (compound concentration: 10 uM) was inactive: 2.19.

With `NC(=S)NS(=O)(=O)c1ccc(N)cc1`, the TEAD-luciferase reporter activity is, setting by setting: (compound concentration: 200 nM) inactive: -0.102; (compound concentration: 2 uM) inactive: 2.25; (compound concentration: 10 uM) inactive: -0.369.

For the compound `C[C@@H]1C[C@H]2[C@@H]3C[C@H](F)C4=CC(=O)C=CC4(C)[C@@]3(F)[C@@H](O)CC2(C)[C@H]1C(=O)CO` (stereo not given in full), the TEAD-luciferase reporter activity (compound concentration: 200 nM) is inactive: 4.16, the TEAD-luciferase reporter activity (compound concentration: 2 uM) is inactive: -0.169 and the TEAD-luciferase reporter activity (compound concentration: 10 uM) is inactive: -0.0701.
